Experimental data as given in PubChem BioAssay AID743255 (National Center for Advancing Translational Sciences (NCATS), 2014).
Out of some 390,000 compounds screened, about 910 (0.23%) were called active. This list was built around the results that the source calls inconclusive (neither active nor inactive); the mix of calls is not that of the screen. The call rests on the fitted dose curve; in most records, active means well fitted inhibition curve with a large enough effect; inconclusive means small, poorly fitted or top-dose-only effect; inactive means no such curve, though single readings can be large or run the other way. Potencies of inconclusive entries are doubtful fits and often do not repeat.

Chains of the proteins cited; added tags and fusions are not shown. Lines headed by an entry give the natural chain unless they say otherwise; changes in a name come on top.
UniProt O94782: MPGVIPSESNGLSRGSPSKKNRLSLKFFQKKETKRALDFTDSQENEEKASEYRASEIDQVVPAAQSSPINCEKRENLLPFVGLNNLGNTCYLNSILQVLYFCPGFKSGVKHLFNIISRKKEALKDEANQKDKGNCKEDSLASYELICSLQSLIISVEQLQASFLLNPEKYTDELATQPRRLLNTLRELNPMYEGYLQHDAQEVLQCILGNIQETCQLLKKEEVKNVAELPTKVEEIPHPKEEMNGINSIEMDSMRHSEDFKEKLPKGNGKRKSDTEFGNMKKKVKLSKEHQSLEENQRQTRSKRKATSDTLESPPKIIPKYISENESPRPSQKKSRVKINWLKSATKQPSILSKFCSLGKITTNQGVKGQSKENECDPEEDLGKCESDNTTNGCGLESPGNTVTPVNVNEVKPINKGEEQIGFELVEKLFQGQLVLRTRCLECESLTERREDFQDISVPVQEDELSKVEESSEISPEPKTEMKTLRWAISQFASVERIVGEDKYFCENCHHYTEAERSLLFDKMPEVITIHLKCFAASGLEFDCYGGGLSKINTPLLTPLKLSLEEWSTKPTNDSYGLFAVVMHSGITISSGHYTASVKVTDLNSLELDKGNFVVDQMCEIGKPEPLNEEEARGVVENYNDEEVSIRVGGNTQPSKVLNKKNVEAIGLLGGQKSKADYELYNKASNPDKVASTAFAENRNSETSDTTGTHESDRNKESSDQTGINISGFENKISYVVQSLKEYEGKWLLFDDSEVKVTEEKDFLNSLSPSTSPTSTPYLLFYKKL

Biological target: Ubiquitin carboxyl-terminal hydrolase 1 (Homo sapiens) (UniProt O94782)
Assay: Inhibitors of USP1/UAF1: Primary Screen; further: nearly all actives have a fitted effect of over 60% in size
Settings: recombinant USP1/UAF1, Ub-Rhodamine cleavage fluorescence; series mostly up to 57.1 µM
Description: Deubiquitinating enzymes (DUBs) are a class of enzymes that can cleave isopeptide bond formed between the C-terminal carboxylate of ubiquitin and a lysine side-chain amino group on the target protein. Among them, ubiquitin specific proteases (USPs) constitute the largest DUB family. Human USPs are emerging as promising targets for pharmacological intervention because of their connection to a number of human diseases, including prostate, colon and breast cancer (1, 2), pediatric acute lymphoblastic leukemia (3), and familial cylindromatosis (4). The advantage of inhibiting USPs lies in the potential specificity of therapeutic intervention that can lead to better efficacy and reduce nonspecific side effects. In a collaboration between the University of Delaware and the NIH Chemical Genomics Center, a high-throughput screen assay was developed to screen for USP1/UAF1 inhibitors. This miniaturized assay has a fluorescent read-out and is used to screen the NIH Molecular Libraries Small Molecule Repository (MLSMR) in order to identify a small molecule that inhibits USP1. NIH Chemical Genomics Center [NCGC] NIH Molecular Libraries Probe Centers Network [MLPCN] MLPCN Grant: DA030552 Assay Submitter (PI): Zhihao Zhuang, University of Delaware 1. Priolo, C., et al. (2006) The isopeptidase USP2a protects human prostate cancer from apoptosis. Cancer Res 66, 8625-8632 2. Popov, N., et al. (2007) The ubiquitin-specific protease USP28 is required for MYC stability. Nat Cell Biol 9, 765-774 3. De Pitta, C., et al. (2005) A leukemia-enriched cDNA microarray platform identifies new transcripts with relevance to the biology of pediatric acute lymphoblastic leukemia. Haematologica 90, 890-898 4. Kovalenko, A., et al. (2003) The tumour suppressor CYLD negatively regulates NF-kappaB signalling by deubiquitination. Nature 424, 801-805
3 microliters of reagents (buffer in columns 3 and 4 as negative control and 1nM USP1/UAF1 complex in columns 1, 2, and 5-48) are dispensed into Greiner black solid bottom 1536-well assay plates. Compounds are then transferred via Kalypsys pin tool equipped with 1536-pin array (10nl slotted pins, V&P Scientific, San Diego, CA). Following an incubation step of 15 min at room temperature, 1ul of Ub-Rho substrate (150nM final concentration) is added to initiate the reaction. The plates are immediately centrifuged at 1000 rpm for 15 seconds, and subsequently transferred to a ViewLux high-throughput CCD imager (PerkinElmer) wherein kinetic measurements of fluorescence are acquired using 480 nm excitation/540 nm emission filter set (6 reads every 60 seconds, see Table 1). All reagents are diluted in an assay buffer consisting of 50mM HEPES (pH 7.8), 0.5mM EDTA, 0.1 mg/ml BSA, 1mM TCEP, and 0.01% Tween-20.
Potency means the concentration at half of the fitted maximal effect.

Potency, inactive:
CC(C)c1ccc(NC(=O)Cn2c(=O)oc3cc(S(=O)(=O)N4CCCC4)ccc32)cc1, O=C(O)[C@H](Cc1ccccc1)NC(=O)N1CCN(c2ccc(F)cc2)CC1, COc1ccc(Nc2nc(OC)nc(OC)n2)cc1, O=C(CNC(=O)N1CC(=O)Nc2ccccc21)Nc1ccc(Cl)cc1Cl, CC(=O)c1cccc(NC(=O)c2ccc(OC3CSC3)cc2)c1, COc1cc(CNn2c(C)n[nH]c2=S)cc(Cl)c1OCC(=O)NC(C)(C)C, O=C(CN1C(=O)C2(OCCO2)c2ccccc21)c1ccc(F)cc1, O=C(C1CC1)N1CCN(c2ccc([N+](=O)[O-])cc2)CC1

Potency, inconclusive:
COc1ccc(-c2nc(S(=O)(=O)c3ccc(C)cc3)c(NCc3ccccc3)o2)cc1 50.1 µM [inhibitor, single point], COc1ccc2c(C)cc3nnnn3c2c1 31.6 µM [inhibitor, single point], Cc1ccc(C)c(S(=O)(=O)c2nnn3c2nc(N2CCCCC2)c2sccc23)c1 112 µM [inhibitor, partial curve, poor fit], COc1ccccc1-c1nnc(SC(C)C(=O)Nc2ccc(C(N)=O)cc2)o1 (stereo not given) 7.94 µM [inhibitor, full curve], COc1ccc(NC(=O)CCCS(=O)(=O)c2nc(-c3ccc(OC)c(OC)c3)cc(C(F)(F)F)n2)cc1OC 31.6 µM [inhibitor, partial curve], COc1ccc2c(c1)C(=O)N(c1ccc(C)cc1C)C(=O)C2 44.7 µM [inhibitor, partial curve], CCOC(=O)N1CCN(S(=O)(=O)c2cc(Cl)ccc2Cl)CC1 31.6 µM [inhibitor, partial curve], COc1ccc(N(C(=O)c2snc(C(N)=O)c2N)C(C(=O)NC2CCCC2)c2cccs2)c(OC)c1 (stereo not given) 35.5 µM [inhibitor, partial curve, poor fit], COc1ccc(-c2nn(-c3ccccc3)cc2/C=C(\CC(=O)O)c2nc3ccccc3s2)cc1OC 35.5 µM [inhibitor, partial curve], COc1ccc(C2CC(=O)N3CN(C4CCCCC4)CSC3=C2C#N)cc1 (stereo not given) 100 µM [inhibitor, partial curve], CC(C)=C(NC(=O)c1ccccc1Cl)C(=O)NCCc1nc2ccccc2[nH]1 0.112 µM [inhibitor, full curve, poor fit], Nc1nc(SCC(=O)N2N=C3/C(=C\c4ccco4)CCCC3C2c2ccco2)n[nH]1 (stereo not given) 8.91 µM [inhibitor, single point], CCC1CN(C(=O)NCc2ccc(F)cc2)c2ccccc2O1 (stereo not given) 50.1 µM [inhibitor, partial curve, poor fit], O=C(N/C(=C/c1ccc(Br)cc1)C(=O)N1CCOCC1)c1cccs1 0.794 µM [inhibitor, full curve, poor fit], CC[C@@]12C(=O)N(c3cccc(Br)c3)C(=O)N1[C@H](c1ccc(Cl)cc1)[C@@H]1C(=O)N(C3CCCCC3)C(=O)[C@@H]12 0.282 µM [inhibitor, full curve], CCn1ccnc1CN(C)C(=O)CCc1nnc(CCC2CCCCC2)o1 31.6 µM [inhibitor, partial curve, poor fit], COCCNC(=O)C1Nc2ccc(OC(F)(F)F)cc2C2C=CCC12 (stereo not given) 35.5 µM [inhibitor, partial curve], Nc1nnn(CC(=O)N/N=C/C=C/c2ccccc2)n1 35.5 µM [inhibitor, partial curve], CSc1cccc(NC(=O)CN2C(=O)c3ccccc3S2(=O)=O)c1 0.355 µM [inhibitor, full curve, poor fit], N#CC1=C(N)C(C#N)(C#N)[C@H](c2ccoc2)[C@H]2CN(Cc3ccccc3)CC=C12 35.5 µM [inhibitor, partial curve], O=S(=O)(Nc1nc2n(n1)C(c1ccccc1)C=C(c1ccc(Cl)cc1)N2)c1ccccc1 (stereo not given) 15.8 µM [inhibitor, partial curve], C=CCN1C(=O)/C(=C\C=C2\N(C)c3ccccc3C2(C)C)SC1=S 5.01 µM [inhibitor, partial curve], COc1ccc(-c2noc(-c3ccccc3NC(=O)c3cc(OC)c(OC)c(OC)c3)n2)cc1 25.1 µM [inhibitor, single point], CC(=O)C(Cc1ccccc1)NC(=O)CN(C)Cc1ccccc1Cl (stereo not given) 0.398 µM [inhibitor, full curve, poor fit], COc1ccc(C2N(c3ccccc3)CCN2c2ccccc2)cc1O 15.8 µM [inhibitor, partial curve], NC(=O)CC(NC(=O)Cc1ccc(Br)cc1)c1ccc(NCc2ccc(F)cc2)c([N+](=O)[O-])c1 (stereo not given) 50.1 µM [inhibitor, partial curve], CCc1cccc(NC(=O)CCS(=O)(=O)c2ccc(C)cc2)c1 31.6 µM [inhibitor, partial curve], N#Cc1c(C#N)c(O)c2ccccc2c1O 31.6 µM [inhibitor, partial curve], COc1ccc([C@H]2C[C@H](n3cc(-c4ccc(F)cc4)nn3)[C@@H](O)CN2Cc2cccs2)cc1 0.631 µM [inhibitor, full curve], O=C1N=C(N2CCOCC2)S/C1=C\c1ccc(OS(=O)(=O)c2ccccc2)cc1 4.47 µM [inhibitor, full curve, poor fit], CC(=O)c1cccc(Nc2nc3ccccc3n3cnnc23)c1 6.31 µM [inhibitor, single point], Cc1ccc(-c2nnc(Nc3ccc4c(c3)nc(C)n4C)c3ccccc23)cc1 6.31 µM [inhibitor, single point]
